Part of at least one peptide drawing is inferred or uncertain, most often the ends. Where a SMILES comes first, the peptide text is derived from it.
System: immune cell invasion of pancreatic islets
Assay: Insulitis in NOD mouse model of type 1 diabetes
Format: in vivo, NOD mice
Excerpt: Non-obese diabetic (NOD) mice (model of Type 1 diabetes) were given 6 injections (on every second day) of proteinaceous compound beginning at 5 weeks of age and animals were sacrificed at 10 weeks of age (i.e. when insulitis develops). Subsequently, formalin-fixed, paraffin-embedded pancreata was stained with haematoxylin and eosin to assess islet inflammation (i.e., insulitis).
Islet insulitis was scored as 0 (healthy islet), 1 (peri-insulitis up to 25% of islet occupied by leukocytes), 2 (leukocytic infiltration from 25% up to 50% of islet mass), 3 (leukocytic infiltration from 50% up to 75% of islet mass) or 4 (less than 25% of islet mass present). Accordingly, the greater the percentage of islets with higher insulitis scores the worse the prognosis for diabetes development would be for that animal.

## CC[C@H](C)[C@H](NC(=O)[C@H](CCCCN)NC(=O)[C@H](CCC(=O)O)NC(=O)CNC(=O)[C@H](CC(C)C)NC(=O)[C@H](CC(N)=O)NC(=O)[C@H](CC(=O)O)NC(=O)[C@H](CCCCN)NC(=O)[C@H](C)NC(=O)[C@H](CC(C)C)NC(=O)[C@H](Cc1ccc(O)cc1)NC(=O)[C@H](C)NC(=O)[C@H](CCSC)NC(=O)[C@H](C)N)C(=O)N[C@H](C(=O)N[C@@H](CCC(=O)O)C(=O)N[C@H](C(=O)N[C@H](C(=O)N[C@H](C(=O)N[C@H](C(=O)N[C@@H](CC(C)C)C(=O)N[C@@H](CC(C)C)C(=O)N[C@@H](CC(N)=O)C(=O)N[C@@H](CCCNC(=N)N)C(=O)N[C@@H](CC(C)C)C(=O)N[C@H](C(=O)N[C@@H](CC(=O)O)C(=O)N[C@@H](CCCNC(=N)N)C(=O)N[C@@H](CC(C)C)C(=O)N[C@@H](CCC(=O)O)C(=O)N[C@@H](CCCCN)C(=O)N[C@@H](Cc1ccc(O)cc1)C(=O)N[C@@H](C)C(=O)NCC(=O)O)[C@@H](C)O)[C@@H](C)CC)[C@@H](C)O)[C@@H](C)CC)C(C)C)[C@@H](C)O [FhHDM-1 p3] (H-AMAYLAKDNLGEKITEVITILLNRLTDRLEKYAG-OH)
NOD mice, 6 injections every second day from 5 weeks, sacrificed at 10 weeks
  immune cell invasion of pancreatic islets (insulitis): reduces immune cell invasion of pancreatic islets with the same efficacy as ES
co-administration of F. hepatica PRX (peroxiredoxin)
  activity in reducing immune cell invasion of pancreatic islets: enhanced

From patent US11311610B2, “Immune-modulating agents and uses therefor” (UNIVERSITY OF TECHNOLOGY SYDNEY, priority 2010, dated 2022)
